Data as given in PubChem BioAssay AID504786 (Drosophila RNAi Screening Center, 2011)
In all, the deposit lists about 21,000 reagents; this is an unselected part of those that have a named target and a result. 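Primary screen; positive scores mean lost reporter signal, so the sign may be inverted from the usual convention.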 Names joined by + are all predicted targets of the reagent. Further read-outs or replicates are left out here.

Screen: 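Knock-downs reducing HIF reporter induction by the iron chelator DFO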 (primary screen)
System: Drosophila S2 cells with a stable HIF luciferase reporter
Reagents: long dsRNA against Drosophila genes, about 0.2 µg dsRNA per well of a 384-well plate
Duration: three days of knock-down, then 20 h of DFO before reading
Conditions: desferrioxamine (DFO) at 100 µM, an iron chelator that mimics hypoxia, for 20 h
Measurement: 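Firefly luciferase driven by the mouse ldh-a hypoxia-response element, measured after 20 h of 100 µM DFO; z-scores per plate, higher means more signal lost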
Scale: z-score: higher = stronger loss of HIF reporter signal

Phk-3 [DRSC04547]
- z-score, replicate 1: -0.2

CG5846 [DRSC02904]
- z-score, replicate 1: -0.5

CG15579 [DRSC18067]
- z-score, replicate 1: -0.3

Polr3B [DRSC07536]
- z-score, replicate 1: 0.1

CG42399 [DRSC00322]
- z-score, replicate 1: -0.3

CG42399 [DRSC00661]
- z-score, replicate 1: -0.3

Pde8 [DRSC04503]
- z-score, replicate 1: -0.2

CG31029 [DRSC15422]
- z-score, replicate 1: 0.1

eya [DRSC03510]
- z-score, replicate 1: -0.2

CG32271 [DRSC08198]
- z-score, replicate 1: -0.2

CG13063 [DRSC09946]
- z-score, replicate 1: 0

RpL13A [DRSC12265]
- z-score, replicate 1: 3.5

CG10137 [DRSC02014]
- z-score, replicate 1: -0.3

CG10137 [DRSC02015]
- z-score, replicate 1: -0.4

CG14636 [DRSC12223]
- z-score, replicate 1: -0.3

Indy-2 + CG33934 [DRSC15685]
- z-score, replicate 1: -0.2

Indy-2 + CG33934 [DRSC15686]
- z-score, replicate 1: -0.4

CG42579 [DRSC20391]
- z-score, replicate 1: -0.5

Faf2 [DRSC03325]
- z-score, replicate 1: -0.4

Psn [DRSC11743]
- z-score, replicate 1: -0.3

CG34148 + P5CDh2 [DRSC13519]
- z-score, replicate 1: -0.4

Pka-R1 [DRSC11674]
- z-score, replicate 1: -0.3

Pka-R1 [DRSC11875]
- z-score, replicate 1: -0.3

sowi [DRSC12558]
- z-score, replicate 1: -0.2

CG18278 + CG30059 [DRSC05418]
- z-score, replicate 1: -0.2

Ilp1 [DRSC10174]
- z-score, replicate 1: -0.3

CR42785 [DRSC04962]
- z-score, replicate 1: -0.1

Sas-4 [DRSC12505]
- z-score, replicate 1: -0.3

RapGAP1 [DRSC02293]
- z-score, replicate 1: -0.2

RapGAP1 [DRSC02294]
- z-score, replicate 1: -0.2

RapGAP1 [DRSC03406]
- z-score, replicate 1: -0.3

wisp [DRSC19703]
- z-score, replicate 1: -0.3

VGAT [DRSC07160]
- z-score, replicate 1: 0

CG34427 [DRSC09978]
- z-score, replicate 1: -0.1

GluClalpha [DRSC16680]
- z-score, replicate 1: -1.3

Girdin [DRSC08292]
- z-score, replicate 1: -0.2

CG3735 [DRSC04411]
- z-score, replicate 1: -0.2

Best3 [DRSC09880]
- z-score, replicate 1: -0.1

CG6770 [DRSC02992]
- z-score, replicate 1: -0.2

ps [DRSC15149]
- z-score, replicate 1: 0

ps [DRSC15151]
- z-score, replicate 1: 1.5

ps [DRSC15152]
- z-score, replicate 1: 0.8

ps [DRSC16388]
- z-score, replicate 1: 2.6

4 entries from above, ordered by “z-score, replicate 1”, high to low:
CG31029 [DRSC15422]
- z-score, replicate 1: 0.1

Pde8 [DRSC04503]
- z-score, replicate 1: -0.2

eya [DRSC03510]
- z-score, replicate 1: -0.2

CG32271 [DRSC08198]
- z-score, replicate 1: -0.2
